These are yes or no findings as the source states them, for the method shown. Binding seen in cells or lysates may run through a third protein. These calls come from enrichment with a bait or labelling near it, and not all partners need be listed. Tags and fused reporters may be left off the sequences shown.
How the values were obtained:
Test in all cases: affinity purification with mass spectrometry; V5-tagged rat TAOK2 variants (1-993) expressed in HEK293T cells, cells mock-treated or transfected with 5 ug/ml poly(I:C) for 4 h; lysate in TAP lysis buffer (50 mM Tris-HCl pH 7.5, 100 mM NaCl, 1.5 mM MgCl2, 0.2% NP-40, 5% glycerol, Sm DNase); anti-V5-agarose, 3 h at 4 C; LC-MS/MS, enrichment against combined control baits EGFP and PGAM5
[1] = target: T1, rat TAOK2 D151A (amino acids 1-993, V5-tagged; mutation in the active site of the kinase domain) (rat) (UniProt Q9JLS3)
T1 sequence: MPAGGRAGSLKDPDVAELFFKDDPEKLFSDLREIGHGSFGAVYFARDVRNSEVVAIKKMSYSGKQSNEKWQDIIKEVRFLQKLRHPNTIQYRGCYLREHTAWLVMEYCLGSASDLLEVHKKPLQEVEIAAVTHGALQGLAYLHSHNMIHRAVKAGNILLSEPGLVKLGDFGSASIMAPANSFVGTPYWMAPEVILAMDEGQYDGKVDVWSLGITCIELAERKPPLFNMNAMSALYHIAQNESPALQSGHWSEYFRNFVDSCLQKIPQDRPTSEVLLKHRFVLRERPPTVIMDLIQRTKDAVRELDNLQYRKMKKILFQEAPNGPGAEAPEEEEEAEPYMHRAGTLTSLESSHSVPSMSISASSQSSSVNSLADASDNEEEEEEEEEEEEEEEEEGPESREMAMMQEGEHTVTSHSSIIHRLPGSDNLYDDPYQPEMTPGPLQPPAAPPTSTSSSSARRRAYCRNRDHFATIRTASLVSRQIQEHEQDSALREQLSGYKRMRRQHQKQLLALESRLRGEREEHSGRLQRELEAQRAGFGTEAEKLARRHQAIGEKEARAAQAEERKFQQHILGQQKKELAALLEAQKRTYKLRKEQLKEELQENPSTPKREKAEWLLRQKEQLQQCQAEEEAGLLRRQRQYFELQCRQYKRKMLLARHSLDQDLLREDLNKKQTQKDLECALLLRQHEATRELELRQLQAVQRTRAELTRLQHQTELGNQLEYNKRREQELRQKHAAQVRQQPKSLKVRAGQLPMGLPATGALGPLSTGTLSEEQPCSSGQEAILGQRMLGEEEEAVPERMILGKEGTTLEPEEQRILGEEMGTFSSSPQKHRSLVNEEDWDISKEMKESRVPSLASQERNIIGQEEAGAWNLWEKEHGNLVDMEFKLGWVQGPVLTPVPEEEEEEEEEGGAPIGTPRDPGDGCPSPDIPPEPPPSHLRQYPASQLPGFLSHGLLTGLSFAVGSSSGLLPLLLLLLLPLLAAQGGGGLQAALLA

[2] = target: T2, rat TAOK2-R702C (amino acids 1-993, V5-tagged; corresponding to human R700C) (rat) (UniProt Q9JLS3)
T2 sequence: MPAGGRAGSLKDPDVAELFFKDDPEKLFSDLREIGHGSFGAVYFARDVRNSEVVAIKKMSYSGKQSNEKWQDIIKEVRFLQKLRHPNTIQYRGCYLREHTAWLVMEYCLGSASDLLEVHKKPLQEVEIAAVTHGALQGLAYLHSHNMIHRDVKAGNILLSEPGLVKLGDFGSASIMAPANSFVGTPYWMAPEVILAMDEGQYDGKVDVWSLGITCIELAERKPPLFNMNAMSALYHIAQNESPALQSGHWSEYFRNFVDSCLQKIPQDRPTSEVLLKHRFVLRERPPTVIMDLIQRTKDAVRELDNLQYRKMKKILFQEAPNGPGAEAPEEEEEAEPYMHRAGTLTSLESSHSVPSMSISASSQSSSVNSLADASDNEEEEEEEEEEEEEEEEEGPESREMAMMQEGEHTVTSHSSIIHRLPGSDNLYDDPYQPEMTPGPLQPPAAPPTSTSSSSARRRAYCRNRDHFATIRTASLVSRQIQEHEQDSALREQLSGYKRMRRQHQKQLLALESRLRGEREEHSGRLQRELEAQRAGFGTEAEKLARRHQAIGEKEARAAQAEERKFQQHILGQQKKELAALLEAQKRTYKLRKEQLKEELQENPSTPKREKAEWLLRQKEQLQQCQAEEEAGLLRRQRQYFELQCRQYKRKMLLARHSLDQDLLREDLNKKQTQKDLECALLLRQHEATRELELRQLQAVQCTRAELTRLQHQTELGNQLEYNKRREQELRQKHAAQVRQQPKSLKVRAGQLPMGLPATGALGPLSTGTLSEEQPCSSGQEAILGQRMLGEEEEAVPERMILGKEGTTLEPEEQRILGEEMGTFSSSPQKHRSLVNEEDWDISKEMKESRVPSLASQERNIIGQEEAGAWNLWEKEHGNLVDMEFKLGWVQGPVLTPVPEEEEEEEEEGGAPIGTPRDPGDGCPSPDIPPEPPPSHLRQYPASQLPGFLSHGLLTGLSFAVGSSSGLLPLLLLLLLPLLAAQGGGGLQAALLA

[3] = target: T3, C-terminal transmembrane domain deleted V5-tagged wild-type rat TAOK2 (amino acids 1-993) (rat) (UniProt Q9JLS3)
T3 sequence: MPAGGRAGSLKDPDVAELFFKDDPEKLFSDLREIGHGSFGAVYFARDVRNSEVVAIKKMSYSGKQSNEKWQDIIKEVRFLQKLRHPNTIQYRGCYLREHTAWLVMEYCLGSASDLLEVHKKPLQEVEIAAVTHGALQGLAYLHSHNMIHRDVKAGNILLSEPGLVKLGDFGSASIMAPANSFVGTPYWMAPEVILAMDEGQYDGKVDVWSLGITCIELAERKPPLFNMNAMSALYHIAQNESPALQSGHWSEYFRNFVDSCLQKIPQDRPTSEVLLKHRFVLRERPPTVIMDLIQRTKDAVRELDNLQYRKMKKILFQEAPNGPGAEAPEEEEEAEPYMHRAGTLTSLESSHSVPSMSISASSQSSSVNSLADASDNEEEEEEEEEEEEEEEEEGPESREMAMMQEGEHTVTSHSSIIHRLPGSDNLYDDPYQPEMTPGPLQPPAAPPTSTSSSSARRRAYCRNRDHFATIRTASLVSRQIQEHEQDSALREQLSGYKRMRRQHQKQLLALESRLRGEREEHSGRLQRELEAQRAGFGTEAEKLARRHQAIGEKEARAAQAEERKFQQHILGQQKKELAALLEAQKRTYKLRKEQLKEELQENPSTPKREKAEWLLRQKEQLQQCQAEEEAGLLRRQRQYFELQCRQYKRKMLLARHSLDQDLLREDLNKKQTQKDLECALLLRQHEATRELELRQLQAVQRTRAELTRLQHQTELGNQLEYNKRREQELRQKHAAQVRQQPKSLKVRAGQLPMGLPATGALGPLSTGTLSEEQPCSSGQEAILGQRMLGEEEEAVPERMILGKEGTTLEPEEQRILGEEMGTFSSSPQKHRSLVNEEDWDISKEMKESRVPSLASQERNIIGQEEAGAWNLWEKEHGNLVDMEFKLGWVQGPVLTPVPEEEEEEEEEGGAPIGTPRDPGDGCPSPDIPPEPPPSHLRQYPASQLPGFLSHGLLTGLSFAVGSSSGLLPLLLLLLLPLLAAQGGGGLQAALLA

Measured: binding

B1: TRIM4 (protein, UniProt Q9C037 1-500)
chain: MEAEDIQEELTCPICLDYFQDPVSIECGHNFCRGCLHRNWAPGGGPFPCPECRHPSAPAALRPNWALARLTEKTQRRRLGPVPPGLCGRHWEPLRLFCEDDQRPVCLVCRESQEHQTHAMAPIDEAFESYRTGNFDIHVDEWKRRLIRLLLYHFKQEEKLLKSQRNLVAKMKKVMHLQDVEVKNATQWKDKIKSQRMRISTEFSKLHNFLVEEEDLFLQRLNKEEEETKKKLNENTLKLNQTIASLKKLILEVGEKSQAPTLELLQNPKEVLTRSEIQDVNYSLEAVKVKTVCQIPLMKEMLKRFQVAVNLAEDTAHPKLVFSQEGRYVKNTASASSWPVFSSAWNYFAGWRNPQKTAFVERFQHLPCVLGKNVFTSGKHYWEVESRDSLEVAVGVCREDVMGITDRSKMSPDVGIWAIYWSAAGYWPLIGFPGTPTQQEPALHRVGVYLDRGTGNVSFYSAVDGVHLHTFSCSSVSRLRPFFWLSPLASLVIPPVTDRK
binds: [1] | [2] | [3]

Reference: PMC8636641
